{"source": "patent US20170333522A1", "about": "“EXPRESSION AND FUNCTION OF GPR64/ADGRG2 IN ENDOCRINE SYSTEMS AND METHODS TO TARGET IT THERAPEUTICALLY” (priority 2016, published 2017)", "key": {"[1]": {"system": "human parathyroid adenoma cells", "assay": "PTH secretion from freshly dispersed human parathyroid adenoma cells (intact PTH ELISA)", "format": "cell-based", "conditions": "forskolin 3 and 5 μM with increasing concentrations of Ca^2+, 30 min"}, "HEK-CaSR cells": {"system": "HEK-CaSR cells", "assay": "cAMP accumulation assay in HEK-CaSR cells", "format": "cell-based, human", "conditions": "10 μM forskolin, 30 min, normocalcemic condition (1.25 mM Ca^2+)"}}, "note": "For at least one compound, name, drawing or mass did not settle the structure.", "data": [{"smiles": "C=C[C@@]1(C)CC(=O)[C@]2(O)[C@@]3(C)[C@@H](O)CCC(C)(C)[C@@H]3[C@H](O)[C@H](OC(C)=O)[C@@]2(C)O1", "note": "[forskolin]", "values": [{"measurement": "PTH secretion", "setting": "[1]", "result": "augmented PTH secretion"}, {"measurement": "cAMP level", "setting": "HEK-CaSR cells", "result": "increased the cAMP level"}]}]}
